{"sequences": {"note": "Amino acid sequences for entries named in this document (tags omitted). Residues count along the entry.", "UniProt P29558, 138-224": "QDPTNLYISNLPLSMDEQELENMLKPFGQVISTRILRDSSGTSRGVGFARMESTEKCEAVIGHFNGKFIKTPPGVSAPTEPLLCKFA", "UniProt P29558, 58-224 Y105S": "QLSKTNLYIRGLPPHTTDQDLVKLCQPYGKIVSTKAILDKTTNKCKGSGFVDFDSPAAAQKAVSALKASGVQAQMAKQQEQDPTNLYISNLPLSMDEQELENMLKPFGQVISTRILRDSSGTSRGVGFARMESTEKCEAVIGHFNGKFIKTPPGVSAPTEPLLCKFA", "UniProt P29558, 58-224 F107L": "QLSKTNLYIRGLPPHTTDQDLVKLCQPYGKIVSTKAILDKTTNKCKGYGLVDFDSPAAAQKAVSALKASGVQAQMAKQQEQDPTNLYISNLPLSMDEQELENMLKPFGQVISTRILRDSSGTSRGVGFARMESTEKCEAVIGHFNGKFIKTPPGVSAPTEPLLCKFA"}, "source": "paper PMC8191779", "about": "“Hinge like domain motion facilitates human RBMS1 protein binding to proto-oncogene c-myc promoter”", "test_in_all_cases": "ITC", "key": {"[1]": {"molecular_target": "RBMS1 RRM2 (Homo sapiens) (UniProt P29558)", "details": "ITC: 20 mM sodium phosphate pH 7.1, 50 mM NaCl, 303 K, 0.1 mM protein in cell, 1-1.5 mM DNA in syringe; recombinant protein; residues 138-224; protein details: 6xHis removed by TEV; single-stranded DNA"}, "[2]": {"molecular_target": "RBMS1 Y105S (Homo sapiens) (UniProt P29558)", "details": "ITC: 20 mM sodium phosphate pH 7.1, 50 mM NaCl, 303 K, 0.1 mM protein in cell, 1-1.5 mM DNA in syringe; recombinant protein; residues 58-224; protein details: 6xHis removed by TEV; single-stranded DNA"}, "[3]": {"molecular_target": "RBMS1 F107L (Homo sapiens) (UniProt P29558)", "details": "ITC: 20 mM sodium phosphate pH 7.1, 50 mM NaCl, 303 K, 0.1 mM protein in cell, 1-1.5 mM DNA in syringe; recombinant protein; residues 58-224; protein details: 6xHis removed by TEV; single-stranded DNA"}}, "note": "For part of these data: No signal at the amounts used counts as a negative. For part of these data: The exact form of at least one protein or probe is not confirmed. For part of these data: The comparison behind a weaker result is the experiment's own reference, which may not be listed here. For part of these data: At least one verdict rests on a figure or table, not on a statement of the authors.", "data": [{"sequence": "TCTTATT [c-myc consensus TCTTATT]", "values": [{"measurement": "binding result", "setting": "[1]", "result": "no binding"}, {"measurement": "binding result", "setting": "[2]", "result": "binds more weakly"}, {"measurement": "binding result", "setting": "[3]", "result": "binds more weakly"}]}]}
